PubChem BioAssay AID504804 | Drosophila RNAi Screening Center | 2011
Assay: 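Fly genes whose loss lessens doxorubicin-driven cell death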 (primary screen). System: Drosophila Kc cells. Knock-down reagent: long dsRNA against Drosophila genes, 0.5 µg dsRNA per well. Duration: 96 h (48 h knock-down, then 48 h drug). Challenge: doxorubicin 5 µg/ml for 48 h, added 48 h after dsRNA. Read-out: 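Luminescent ATP counts per replicate, not normalised, reflecting viable cells after 48 h dsRNA knock-down followed by 48 h of 5 µg/ml doxorubicin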. Scale: raw ATP luminescence: higher = more viable cells, protection from doxorubicin. Hit rule: 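Active when both duplicate wells lie at least 2 SD above the plate mean and protection is confirmed by rescreening and independent dsRNAs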.
In all, the deposit lists about 19,000 reagents; shown is an unselected part of those that have a named target and a result. Of all reagents, 47 (0.25%) are marked active. 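Signals are raw, not normalised; exact z-scores behind calls not deposited; actives needed confirmation, so some wells reaching 2 SD are inactive.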 The numbers tell different reagents against one gene apart.

The first 2 entries, ahead of the listing:
Taf1 → raw ATP luminescence, replicate 1 = 64403; raw ATP luminescence, replicate 2 = 66333; call = inactive
Sc2 → raw ATP luminescence, replicate 1 = 60703; raw ATP luminescence, replicate 2 = 39790; call = inactive

The listing, from the first entry:
Taf1 → raw ATP luminescence, replicate 1 = 64403; raw ATP luminescence, replicate 2 = 66333; call = inactive
Sc2 → raw ATP luminescence, replicate 1 = 60703; raw ATP luminescence, replicate 2 = 39790; call = inactive
CG15767 → raw ATP luminescence, replicate 1 = 39550; raw ATP luminescence, replicate 2 = 51500; call = inactive
CG1233 → raw ATP luminescence, replicate 1 = 64903; raw ATP luminescence, replicate 2 = 66707; call = inactive
rec #1 → raw ATP luminescence, replicate 1 = 64290; raw ATP luminescence, replicate 2 = 62360; call = inactive
rec #2 → raw ATP luminescence, replicate 1 = 77130; raw ATP luminescence, replicate 2 = 61900; call = inactive
Grasp65 → raw ATP luminescence, replicate 1 = 71477; raw ATP luminescence, replicate 2 = 71923; call = inactive
gfzf → raw ATP luminescence, replicate 1 = 46833; raw ATP luminescence, replicate 2 = 31350; call = inactive
Hpd → raw ATP luminescence, replicate 1 = 22790; raw ATP luminescence, replicate 2 = 23543; call = inactive
Hr83 → raw ATP luminescence, replicate 1 = 61567; raw ATP luminescence, replicate 2 = 68837; call = inactive
Ets65A #1 → raw ATP luminescence, replicate 1 = 91840; raw ATP luminescence, replicate 2 = 1.01e5; call = inactive
Ets65A #2 → raw ATP luminescence, replicate 1 = 48723; raw ATP luminescence, replicate 2 = 43233; call = inactive
Ets65A #3 → raw ATP luminescence, replicate 1 = 48193; raw ATP luminescence, replicate 2 = 52797; call = inactive
Rbp #1 → raw ATP luminescence, replicate 1 = 42250; raw ATP luminescence, replicate 2 = 36280; call = inactive
Rbp #2 → raw ATP luminescence, replicate 1 = 84900; raw ATP luminescence, replicate 2 = 50620; call = inactive
CG15336 → raw ATP luminescence, replicate 1 = 34320; raw ATP luminescence, replicate 2 = 48630; call = inactive
ATPsynepsilonL → raw ATP luminescence, replicate 1 = 47047; raw ATP luminescence, replicate 2 = 46703; call = inactive
elfless → raw ATP luminescence, replicate 1 = 45320; raw ATP luminescence, replicate 2 = 58997; call = inactive
CG9536 → raw ATP luminescence, replicate 1 = 92527; raw ATP luminescence, replicate 2 = 73210; call = inactive
